In patent US20260167693A1 one finds binding data, which are given here for one molecule.

Amino acid sequences for entries named in this document (tags omitted). Residues count along the entry.
UniProt P40238, residues 26-635: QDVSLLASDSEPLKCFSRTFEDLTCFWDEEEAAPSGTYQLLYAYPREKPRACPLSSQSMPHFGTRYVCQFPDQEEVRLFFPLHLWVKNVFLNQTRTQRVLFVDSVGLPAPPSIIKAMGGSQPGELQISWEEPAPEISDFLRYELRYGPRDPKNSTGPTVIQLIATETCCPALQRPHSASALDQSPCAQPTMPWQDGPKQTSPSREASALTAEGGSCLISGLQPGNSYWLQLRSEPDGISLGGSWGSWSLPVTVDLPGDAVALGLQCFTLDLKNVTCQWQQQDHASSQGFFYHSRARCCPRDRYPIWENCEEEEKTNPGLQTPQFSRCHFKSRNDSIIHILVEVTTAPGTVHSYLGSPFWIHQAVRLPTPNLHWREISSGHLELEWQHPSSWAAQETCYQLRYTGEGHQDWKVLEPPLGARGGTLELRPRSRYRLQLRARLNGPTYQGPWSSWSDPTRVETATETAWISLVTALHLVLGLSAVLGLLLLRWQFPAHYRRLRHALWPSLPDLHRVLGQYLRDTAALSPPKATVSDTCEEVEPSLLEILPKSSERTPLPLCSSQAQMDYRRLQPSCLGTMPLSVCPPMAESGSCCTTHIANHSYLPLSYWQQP

Results are given in words; binding and its absence hold for the method and conditions named. Some entries that bind do so weakly or less than the wild type. Where a sequence is shown, tags or fusion partners need not be part of it.

This assay deals with human MPL (Thrombopoietin receptor) (human) (UniProt P40238). Put plainly: scFv-NLuc supernatant on cells, 4 C 1 h, NLuc activity.

B1: 161-GGSG-NLuc-AcV5 (scFv, not shown: large carriers)
scFv: DIQMTQSSSSFSVSLGDRVTITCMASEDIYIRLAWYQQKPGNAPRLLISAATSLETGVPSRFSGSGSGKDYTLSITSLQTEDVGTYYCQQYWSSPWTFGGGTKLEINGGGGSGGGGSGGGGSDVQLQESGPGLVKPSQSLSLTCTVTGYSITSDYTWNWIRQFPGNKLEWMGYITYSGSTSYNPSLKSRNSITRDTSKNQFFLQLNSVTTEDTATYYCARLGRRYTMDYWGQGTSVTVSSGGSG
With B1, the binding result is “binds”.
